Reference: patent US20180303901A1, “Notch1 Decoy Antagonists Protect From Obesity-Induced Insulin Resistance and Fatty Liver” (The Trustees of Columbia University in the City of New York, priority 2013, published 2018)
At least one compound was matched to its structure with a doubt left.

Assays:
[1] = test system: hepatocytes; settings: hepatocytes (Li 2010; Sabatini 2006); cited from earlier work
[2] = test system: N1-IC-transduced mice; experiment: Rapamycin treatment of Fc or N1-IC-transduced mice; assay type: in vivo, mouse
Protocol: FIG. 9A-FIG. 9F: mTor inhibition prevents Notch-induced fatty liver. Data shown means±SEM. FIG. 9A: Fasn-luciferase in FAO hepatoma cells transfected with either Raptor or scrambled (scr) shRNA, transduced with either Fc (−) or N1-IC (Notch) adenovirus and treated for 16-h with 100 nM insulin. ***p<0.001 vs. Fc control, &p<0.001 vs. scrambled shRNA, #p<0.001 vs. no insulin. FIG. 9B Gene expression in primary hepatocytes after transduction with GFP (−) or N1-IC (Notch) adenovirus, followed by incubation with 10 nM insulin and/or 25 nM rapamycin (triplicate wells, representative of 2 individual experiments). *p<0.05 vs. untreated cells, &p<0.05 vs. insulin-treated cells, #p<0.05 vs. N1-IC transduced, insulin-treated ceils. FIG. 9C Hepatic triglyceride content in rapamycin-treated Fc or N1-IC-transduced mice, sacrificed after a 16-h fast followed by 6-h refeeding. FIG. 9D Gene expression in rapamycin-treated Fc or N1-IC-transduced mice, sacrificed after a 16-h fast followed by 6-h refeeding. FIG. 9E: Glucose tolerance test in mice transduced with Fc or N1-IC, injected daily with rapamycin or vehicle. *p<0.05, **p<0.01 and ***p<0.001 vs. Cre-mice. FIG. 9F: AUC from GTT in mice transduced with Fc or N1-IC, injected daily with rapamycin or vehicle. AUC was normalized to Fc-transduced mice for each treatment. Mice were 10-week-old, short-term (3 weeks) HFD-fed C57Bl/6 males. *p<0.05, **p<0.01 and ***p<0.001 vs. Cre-mice.
Dibenzazepine (Syncom, 2 μmol/kg body weight), a γ-secretase inhibitor (GSI), and rapamycin (Enzo, 2 mg/kg body weight), were suspended in vehicle—0.5% Methocel E4M (w/v, Colorcon) and 0.1% Tween-80 (Sigma) solution—and sonicated for two minutes to achieve a homogeneous suspension prior to daily (×5 days) intraperitoneal injection (van Es 2005).
Blood glucose was measured by glucose meter (OneTouch) and plasma insulin by ELISA (Millipore). We performed glucose tolerance tests after a 16-hr (6 PM-10 AM) fast using intraperitoneal injection of 2 g/kg body weight glucose. Hepatic lipids were extracted (Folch 1957), normalized by either liver weight or protein, and confirmed by Oil Red O staining of snap-frozen liver sections. […] Hepatic de novo lipogenesis was determined by measuring the amount of newly synthesized FA, as resolved by TLC, present in the liver 1 h after intraperitoneal injection of 1 mCi of 3H2O (Zhang 2006). Triglyceride secretion rate was measured after injection of Poloxamer 407, with serial measurement of plasma triglycerides (Li 2011).
Notch1-IC, Notch decoy (1-24), Fc and GFP adenoviruses have been described (Kitamura 2007; Funahashi 2011; Nakae 2003). We transduced primary hepatocytes or HEK 293 ceils at MOI 5 and FAO hepatoma cells at MOI 200, to achieve 90-100% infection efficiency as assessed by GFP expression. […]

[3] = test system: primary hepatocytes; experiment: Gene expression in primary hepatocytes transduced with GFP or N1-IC, insulin and/or rapamycin; assay type: cell-based, mouse; settings: 25 nM rapamycin
[4] = rapamycin 2 mg/kg daily intraperitoneal, 16-h fast, 6-h refeeding

For `CO[C@H]1C[C@@H]2CC[C@@H](C)[C@@](O)(O2)C(=O)C(=O)N2CCCC[C@H]2C(=O)O[C@H]([C@H](C)C[C@@H]2CC[C@@H](O)[C@H](OC)C2)CC(=O)[C@H](C)/C=C(\C)[C@@H](O)[C@@H](OC)C(=O)[C@H](C)C[C@H](C)/C=C/C=C/C=C/1C` [rapamycin], the “insulin activation of the lipogenic transcription factor Srepb1c” value [1] is given as “prevents”, the “reversal of Notch induction of glucose intolerance” value ([2]; N1-IC-transduced mice, daily rapamycin) is given as “not” and the “N1-IC-induced increase in hepatic triglyceride” value [2, 4] is given as “completely reversed”. For the same molecule, the “N1-IC-induced increase in lipogenic gene expression” value [2, 4] was “completely reversed”, the “Heyl and Hey1 expression (Notch targets)” value ([2]; rapamycin-treated N1-IC-transduced mice) was “unaffected” and the “Notch-induction of endogenous Fasn” value [3] was “suppressed”.
